Test results from patent US20140234872A1.
No constants are given. Whether binding was seen depends on the method and setting. In cells and extracts the contact can be indirect. Some results given as binding are weak or reduced against the parent protein; the word gives no strength. Where a sequence is shown, tags or fusion partners need not be part of it.

Chains of the proteins cited; added tags and fusions are not shown.
UniProt P29350: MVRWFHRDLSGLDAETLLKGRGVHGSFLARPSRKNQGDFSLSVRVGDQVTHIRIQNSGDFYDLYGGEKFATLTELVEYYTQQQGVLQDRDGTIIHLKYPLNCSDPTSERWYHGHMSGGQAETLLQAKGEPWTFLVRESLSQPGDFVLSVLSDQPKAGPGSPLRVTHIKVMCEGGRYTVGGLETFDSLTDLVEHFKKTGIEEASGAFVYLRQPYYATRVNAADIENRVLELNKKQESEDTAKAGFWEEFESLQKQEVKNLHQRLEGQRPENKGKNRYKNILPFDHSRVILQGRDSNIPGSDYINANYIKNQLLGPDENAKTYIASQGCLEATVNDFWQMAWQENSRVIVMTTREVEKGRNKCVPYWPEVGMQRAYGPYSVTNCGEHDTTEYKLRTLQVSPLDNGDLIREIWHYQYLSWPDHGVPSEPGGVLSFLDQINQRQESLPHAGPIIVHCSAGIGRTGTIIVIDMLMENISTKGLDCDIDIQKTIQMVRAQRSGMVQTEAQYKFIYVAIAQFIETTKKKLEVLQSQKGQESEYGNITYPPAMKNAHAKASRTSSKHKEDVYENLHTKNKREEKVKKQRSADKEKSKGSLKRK

What was measured:
[1] = biological target: GST-SHP-1 (full length, wild-type, human) (human) (UniProt P29350); test: GST pulldown with recombinant proteins
[2] = biological target: GST-SHP-1 (full length, wild-type, human) (human) (UniProt P29350); test: GST pulldown, GIV-CT pAb blot (FIG. 20B)
[3] = biological target: GST-SHP-1 (full length, wild-type, human) (human) (UniProt P29350); test: GST pulldown, ˜3 µg His-GIV-CT and ˜25 µg GST-SHP-1, GIV-CT pAb blot (FIG. 20A)

Measured: binding

B1: His-GIV-CT (aa 1660-1870), wild-type, not phosphorylated (mock- or sham-treated) (protein, not shown: small tags and cut ends)
chain: SETLESRHHKIKTGSPGSEVVTLQQFLEESNKLTSVQIKSSSQENLLDEVMKSLSVSSDFLGKDKPVSCGLARSVSGKTPGDFYDRRTTKPEFLRPGPRKTEDTYFISSAGKPTPGTQGKIKLVKESSLSRQSKDSNPYATLPRASSVISTAEGTTRRTSIHDFLTKDSRLPISVDSPPAAADSNTTAASNVDKVQESRNSKSRSREQQSS
binds: all assays above
